The source of these data is PubChem BioAssay AID720706 (Broad Institute, 2013).

Each structure is given as a SMILES string. The list shows a part of the results.

The nature of the assay: reduced GFP signal of wild-type E. coli, primary screen, bacterial rRNA inhibitor project, GFP/RFP fluorescence, OD600, single point (AID 720706). As to conditions: E. coli WT GFP vs humanized-ribosome RFP mutants, 24 h; OD600 change: measured here: OD600 growth, DMSO median 0, no signal -100; RFP signal change: measured here: RFP humanized mutant strains, DMSO median 0, no signal -100, concentration not given here.
Consider `CCOC(=O)N1CCC(Nc2ccc(F)cc2)CC1`, for which the OD600 change is 7.02% and the RFP signal change was 9.65%.

For `O=C(NCC1(N2CCCCC2)CCCCC1)c1ccc(F)cc1`, the OD600 change was determined as 11.1% and the RFP signal change is -3.21%.

On to `CCCCn1nnnc1C(c1cc2ccccc2o1)N1CCC(n2c(=O)[nH]c3ccccc32)CC1` (stereo not given), for which the OD600 change is -4.01% and the RFP signal change turned out to be 1.99%.

For the compound `O=P1(N(CCCl)CCCl)SCCCS1`, the OD600 change was found to be 11.3% and the RFP signal change was 1.86%.

Turning to `CCCCOc1ccc(C(=O)NCC2(N3CCOCC3)CCCCC2)cc1`, the OD600 change was -1.04% and the RFP signal change worked out at 0.225%.

On to `CC(C)(C)n1nnnc1C(c1ccccc1)N1CCC(n2c(=O)[nH]c3ccccc32)CC1` (stereo not given), for which the OD600 change was -21.9% and the RFP signal change is -4.56%.

On to `COc1cc(C(=O)NCC2(N(C)C)CCCCC2)ccc1OC(F)F`, for which the OD600 change is 5.69% and the RFP signal change came out at 1.36%.

In the case of `CCOC(=O)N1CCC(Nc2cccc(C)c2)CC1`, the OD600 change was 0.87% and the RFP signal change was -3.59%.

On to `O=c1[nH]c2ccccc2n1C1CCN(C(c2cccc3ccccc23)c2nnnn2C2CCCC2)CC1` (stereo not given), for which the OD600 change turned out to be 11.6% and the RFP signal change is -0.992%.

As to `O=c1[nH]c2ccccc2n1C1CCN(C(c2ccccc2)c2nnnn2C2CCCCC2)CC1` (stereo not given), the OD600 change worked out at 17% and the RFP signal change is -3.14%.

As for `Cc1cccc(NC2(C#N)CCN(Cc3ccccc3)CC2)c1`, the OD600 change stood at 19.4% and the RFP signal change was determined as 4.87%.

For the compound `CCC(c1nnnn1C1CCCC1)N1CCC(n2c(=O)[nH]c3ccccc32)CC1` (stereo not given), the OD600 change is -1.8% and the RFP signal change is 2.96%.

As for `COc1ccc(C(=O)NCC2(N3CCCCC3)CCCCC2)c(OC)c1OC`, the OD600 change stood at 5.95% and the RFP signal change amounted to 0.705%.

With `CC(C)(C)OC(=O)N1CCC(N(C(=O)c2ccccc2)c2ccc(F)cc2)CC1`, the OD600 change is 0.025% and the RFP signal change was -0.235%.

Turning to `COc1ccc(C(=O)NCC2(N3CCCCC3)CCCCC2)cc1`, the OD600 change was 6.19% and the RFP signal change turned out to be 5.84%.

Take `CCCCn1nnnc1C(c1cccs1)N1CCC(n2c(=O)[nH]c3ccccc32)CC1` (stereo not given): the OD600 change was -50.9% and the RFP signal change was -5.74%.

For `CCCCn1nnnc1C(CC)N1CCC(n2c(=O)[nH]c3ccccc32)CC1` (stereo not given), the OD600 change amounted to 4.01% and the RFP signal change stood at 7.25%.

Consider `O=C(NCC1(N2CCCCC2)CCCCC1)c1cccs1`, for which the OD600 change amounted to 11.9% and the RFP signal change was determined as 2.45%.

For `O=C(NCC1(N2CCCCC2)CCCCC1)c1ccc(=O)[nH]c1`, the OD600 change is 14.7% and the RFP signal change turned out to be 0.121%.

As to `COc1ccc(Cl)cc1C(=O)NCC1(N2CCOCC2)CCCCC1`, the OD600 change was determined as 1.91% and the RFP signal change is 2.17%.

Regarding `O=C(OC1CN2CCC1CC2)C1c2ccccc2Oc2ccccc21` (stereo not given), the OD600 change came out at 1.59% and the RFP signal change was found to be 3.69%.

For `O=c1[nH]c2ccccc2n1C1CCN(C(c2cc3ccccc3o2)c2nnnn2C2CCCCC2)CC1` (stereo not given), the OD600 change was found to be 34% and the RFP signal change is 1.81%.

On to `O=C(NCC1(N2CCCCC2)CCCCC1)c1ccc(Cl)s1`, for which the OD600 change was determined as 10% and the RFP signal change came to 14.2%.

As to `N#CC1(Nc2ccccc2)CCN(Cc2ccccc2)CC1`, the OD600 change is 9.7% and the RFP signal change is 0.445%.

Take `CCCCn1nnnc1C(c1ccc(OC)cc1)N1CCC(n2c(=O)[nH]c3ccccc32)CC1` (stereo not given): the OD600 change was -12.6% and the RFP signal change was determined as 1.77%.

For `CCOC(=O)N1CCC(Nc2ccc(OC)cc2)CC1`, the OD600 change was 10.8% and the RFP signal change is -1.33%.

As for `Cc1cc(C)cc(N(C(=O)c2ccccc2)C2CCN(C(=O)OC(C)(C)C)CC2)c1`, the OD600 change was -3.81% and the RFP signal change turned out to be 0.898%.

On to `O=c1[nH]c2ccccc2n1C1CCN(C(c2ccccc2OC(F)(F)F)c2nnnn2C2CCCCC2)CC1` (stereo not given), for which the OD600 change was found to be 11.2% and the RFP signal change was determined as 0.712%.

Take `O=C(NCC1(N2CCCCC2)CCCCC1)c1ccc(Cl)nc1`: the OD600 change was -0.36% and the RFP signal change came to 11.5%.

Turning to `CCC(c1nnnn1C(C)(C)C)N1CCC(n2c(=O)[nH]c3ccccc32)CC1` (stereo not given), the OD600 change came to 16.5% and the RFP signal change was 4.24%.

`O=C(NCC1(N2CCOCC2)CCCCC1)c1cc(F)c(F)cc1Cl`: the OD600 change was determined as 15.1% and the RFP signal change stood at 2.91%.

Regarding `COc1cc(OC)c(C(=O)NCC2(N(C)C)CCCCC2)cc1OC`, the OD600 change turned out to be 11.9% and the RFP signal change came out at 0.188%.

On to `CCCCn1nnnc1C(c1ccnc2ccccc12)N1CCC(n2c(=O)[nH]c3ccccc32)CC1` (stereo not given), for which the OD600 change was -14.1% and the RFP signal change is -1.38%.

Turning to `CC(C)c1ccc(NC2CCN(C(=O)OC(C)(C)C)CC2)cc1`, the OD600 change was 1.31% and the RFP signal change is -5.03%.

Turning to `CN(C)c1cccc(C(=O)NCC2(N3CCCCC3)CCCCC2)c1`, the OD600 change came out at 6.98% and the RFP signal change was -0.71%.

Take `COc1ccc(CN(CCCl)CCCl)cc1Cl`: the OD600 change is 11.5% and the RFP signal change was found to be 9.12%.

Regarding `COc1ccc(C(c2nnnn2C2CCCC2)N2CCC(n3c(=O)[nH]c4ccccc43)CC2)cc1` (stereo not given), the OD600 change is -14.2% and the RFP signal change is -0.43%.

Turning to `CCCOc1ccc(C(=O)NCC2(N(C)C)CCCCC2)cc1OC`, the OD600 change was determined as 8.44% and the RFP signal change was -1.93%.

Take `Cc1ccc(C(=O)NCC2(N(C)C)CCCCC2)o1`: the OD600 change came out at 9.57% and the RFP signal change came to 3.73%.

Regarding `O=C(NCC1(N2CCCCC2)CCCCC1)c1cncc(Br)c1`, the OD600 change was determined as 1.15% and the RFP signal change was 1.21%.

As for `CN1CCC(Nc2cccc(F)c2)CC1`, the OD600 change worked out at 15% and the RFP signal change was -9.59%.

Turning to `O=c1[nH]c2ccccc2n1C1CCN(C(c2ccccc2OC(F)(F)F)c2nnnn2C2CCCC2)CC1` (stereo not given), the OD600 change was found to be 32.8% and the RFP signal change is 0.475%.

Consider `CCN1CCC(Nc2ccc(Cl)cc2)CC1`, for which the OD600 change was determined as 15.4% and the RFP signal change is 13.2%.

`O=C(NCC1(N2CCCCC2)CCCCC1)c1cccc([N+](=O)[O-])c1`: the OD600 change was 18.6% and the RFP signal change was 1.86%.

As for `CSc1ccc(C(=O)NCC2(N3CCOCC3)CCCCC2)cc1`, the OD600 change was 7.49% and the RFP signal change was found to be 0.145%.

As for `CC(C)(C)n1nnnc1C(c1ccccc1OC(F)(F)F)N1CCC(n2c(=O)[nH]c3ccccc32)CC1` (stereo not given), the OD600 change turned out to be 7.99% and the RFP signal change is -0.306%.

`COc1cc(C(=O)NCC2(N3CCCCC3)CCCCC2)ccc1OC(F)F`: the OD600 change was 16.4% and the RFP signal change was found to be 1.25%.

As for `CCCCn1nnnc1C(c1cccc2ccccc12)N1CCC(n2c(=O)[nH]c3ccccc32)CC1` (stereo not given), the OD600 change came out at 1.48% and the RFP signal change was -2%.

In the case of `CN1CCN(CCOC(=O)C(O)(c2ccccc2)c2ccccc2)CC1`, the OD600 change turned out to be 6.75% and the RFP signal change was -1.71%.

In the case of `COc1ccc(NC2CCN(C(=O)OC(C)(C)C)CC2)cc1`, the OD600 change is 0.086% and the RFP signal change was -2.96%.

As to `CC(C)c1ccc(C(=O)NCC2(N3CCOCC3)CCCCC2)cc1`, the OD600 change was -2.78% and the RFP signal change was determined as 0.757%.

Turning to `O=C(NCC1(N2CCCCC2)CCCCC1)c1cccc(C(F)(F)F)c1`, the OD600 change was -3.41% and the RFP signal change worked out at 0.584%.

`N#Cc1ccc(C(=O)NCC2(N3CCCCC3)CCCCC2)cc1`: the OD600 change was 10.9% and the RFP signal change turned out to be 6.4%.

Take `CC(C)(C)OC(=O)N1CCC(N(C(=O)c2ccccc2)c2ccc(Cl)cc2)CC1`: the OD600 change worked out at 3.31% and the RFP signal change was -2.45%.

Take `CC(C)(C)n1nnnc1C(c1cccc2ccccc12)N1CCC(n2c(=O)[nH]c3ccccc32)CC1` (stereo not given): the OD600 change came to 8.13% and the RFP signal change was 1.19%.

Take `CN(C)C1(CNC(=O)c2cccc(C#N)c2)CCCCC1`: the OD600 change turned out to be 12.3% and the RFP signal change is -0.466%.

As for `O=c1[nH]c2ccccc2n1C1CCN(C(c2ccccc2)c2nnnn2C2CCCC2)CC1` (stereo not given), the OD600 change was -23.3% and the RFP signal change was -10.6%.

With `CCCN1CCC(Nc2cc(OC)cc(OC)c2)CC1`, the OD600 change came to 11.8% and the RFP signal change turned out to be 23.3%.

Take `Cc1cc(N(CCCl)CCCl)ccc1C=O`: the OD600 change was -3.42% and the RFP signal change is 4.16%.

Consider `C/C(N)=N\P(=O)(Oc1ccccc1)Oc1ccccc1`, for which the OD600 change turned out to be 1.58% and the RFP signal change was found to be 4.08%.
